This is one part of the list.
What was measured:
Test in all cases: log2 fold change, soluble protein after heating vs DMSO (PISA); higher = thermal stabilisation; K562 cells, 10 uM, 30 min; active = over 0.2 and 3.5 SD of the protein, either way, in both replicates (recomputed)
saracatinib = compound: CN1CCN(CCOc2cc(OC3CCOCC3)c3c(Nc4c(Cl)ccc5c4OCO5)ncnc3c2)CC1 [saracatinib]
Outline: (§1)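 K562 cells (2×10^6 cells/mL) were treated with 10 μM compound for 30 min, and aliquots were heated for 3 min over 48°C-58°C. Pooled aliquots were extracted in PBS with 0.5% NP-40 at 4°C, and the supernatant after 21,000xg for 90 min was measured by TMTpro 16plex LC-MS/MS with channel sums equalised. Reported thermal stability, relative to control samples and from duplicates, is a log2 fold change.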

Protein sequences, listed by entry. Tags and fused reporters are not part of them. Lines headed by an entry give the natural chain unless they say otherwise; changes in a name come on top.
UniProt Q9BVT8: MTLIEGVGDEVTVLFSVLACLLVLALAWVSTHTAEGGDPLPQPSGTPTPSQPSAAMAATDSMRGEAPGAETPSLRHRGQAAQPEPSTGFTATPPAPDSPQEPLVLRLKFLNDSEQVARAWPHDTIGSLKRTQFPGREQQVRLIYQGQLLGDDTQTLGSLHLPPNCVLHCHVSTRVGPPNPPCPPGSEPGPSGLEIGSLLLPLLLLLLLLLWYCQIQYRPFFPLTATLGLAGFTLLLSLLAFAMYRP
UniProt Q9NWH2: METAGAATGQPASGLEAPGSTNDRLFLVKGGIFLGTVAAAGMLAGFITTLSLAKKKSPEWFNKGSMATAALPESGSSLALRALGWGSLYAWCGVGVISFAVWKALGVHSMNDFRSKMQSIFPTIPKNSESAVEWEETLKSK
UniProt Q8TDI8: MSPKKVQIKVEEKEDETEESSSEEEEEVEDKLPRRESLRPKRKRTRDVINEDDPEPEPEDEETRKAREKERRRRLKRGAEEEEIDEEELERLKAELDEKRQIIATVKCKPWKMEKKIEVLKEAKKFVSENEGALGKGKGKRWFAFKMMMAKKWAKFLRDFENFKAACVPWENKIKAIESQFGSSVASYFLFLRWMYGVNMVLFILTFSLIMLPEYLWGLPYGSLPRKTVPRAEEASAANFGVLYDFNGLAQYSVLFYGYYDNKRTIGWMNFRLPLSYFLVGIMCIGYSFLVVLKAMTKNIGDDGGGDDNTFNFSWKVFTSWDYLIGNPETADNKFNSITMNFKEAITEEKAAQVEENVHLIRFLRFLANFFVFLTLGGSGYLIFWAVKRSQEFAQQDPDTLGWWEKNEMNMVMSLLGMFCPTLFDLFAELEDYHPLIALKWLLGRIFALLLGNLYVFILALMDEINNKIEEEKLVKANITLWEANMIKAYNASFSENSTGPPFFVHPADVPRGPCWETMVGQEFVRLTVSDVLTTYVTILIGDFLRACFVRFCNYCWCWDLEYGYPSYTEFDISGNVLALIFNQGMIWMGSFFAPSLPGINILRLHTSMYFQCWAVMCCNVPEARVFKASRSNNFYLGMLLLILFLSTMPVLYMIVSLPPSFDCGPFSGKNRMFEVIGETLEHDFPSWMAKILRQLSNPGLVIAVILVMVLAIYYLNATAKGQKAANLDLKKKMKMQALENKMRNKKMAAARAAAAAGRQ
UniProt O94876, whole entry, looked up: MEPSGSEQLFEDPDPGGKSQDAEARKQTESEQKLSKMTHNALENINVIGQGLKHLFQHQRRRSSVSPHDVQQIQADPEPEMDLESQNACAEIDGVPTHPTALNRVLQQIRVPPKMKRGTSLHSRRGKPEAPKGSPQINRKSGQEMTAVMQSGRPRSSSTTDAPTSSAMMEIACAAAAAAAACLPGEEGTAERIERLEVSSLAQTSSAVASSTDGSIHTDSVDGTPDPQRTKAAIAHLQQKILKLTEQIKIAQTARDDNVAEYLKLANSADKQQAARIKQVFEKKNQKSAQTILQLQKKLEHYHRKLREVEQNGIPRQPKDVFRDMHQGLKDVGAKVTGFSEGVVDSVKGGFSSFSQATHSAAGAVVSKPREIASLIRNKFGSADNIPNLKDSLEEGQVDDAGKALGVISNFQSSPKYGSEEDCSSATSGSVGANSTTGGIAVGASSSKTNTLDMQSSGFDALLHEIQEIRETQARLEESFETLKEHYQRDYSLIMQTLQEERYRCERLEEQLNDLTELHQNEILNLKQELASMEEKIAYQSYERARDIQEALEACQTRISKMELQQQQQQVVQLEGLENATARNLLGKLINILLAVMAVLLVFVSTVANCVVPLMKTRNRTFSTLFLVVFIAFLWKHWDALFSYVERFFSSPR
UniProt Q96K49: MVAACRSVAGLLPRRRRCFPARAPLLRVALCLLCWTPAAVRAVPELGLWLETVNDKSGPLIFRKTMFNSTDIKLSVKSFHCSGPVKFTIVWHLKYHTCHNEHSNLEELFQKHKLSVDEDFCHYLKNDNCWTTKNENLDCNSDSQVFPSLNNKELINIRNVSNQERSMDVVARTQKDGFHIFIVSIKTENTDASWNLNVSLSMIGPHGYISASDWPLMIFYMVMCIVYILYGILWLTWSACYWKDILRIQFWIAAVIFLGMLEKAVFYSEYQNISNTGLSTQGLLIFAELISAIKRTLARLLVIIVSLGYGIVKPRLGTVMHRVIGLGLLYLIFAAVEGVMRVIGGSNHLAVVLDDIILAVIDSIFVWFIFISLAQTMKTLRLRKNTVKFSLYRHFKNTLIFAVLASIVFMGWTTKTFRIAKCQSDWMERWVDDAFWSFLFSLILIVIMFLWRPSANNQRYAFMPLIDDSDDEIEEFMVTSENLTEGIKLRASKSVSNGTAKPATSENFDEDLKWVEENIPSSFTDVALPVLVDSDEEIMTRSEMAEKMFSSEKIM
UniProt P55061, whole entry, looked up: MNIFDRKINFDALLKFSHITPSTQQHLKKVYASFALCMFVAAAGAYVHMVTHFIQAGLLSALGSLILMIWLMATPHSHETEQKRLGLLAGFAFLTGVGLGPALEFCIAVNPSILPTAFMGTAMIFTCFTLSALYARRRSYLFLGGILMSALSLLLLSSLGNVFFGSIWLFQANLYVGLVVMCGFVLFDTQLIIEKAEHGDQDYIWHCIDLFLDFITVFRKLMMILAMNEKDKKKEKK
UniProt Q6ZT21: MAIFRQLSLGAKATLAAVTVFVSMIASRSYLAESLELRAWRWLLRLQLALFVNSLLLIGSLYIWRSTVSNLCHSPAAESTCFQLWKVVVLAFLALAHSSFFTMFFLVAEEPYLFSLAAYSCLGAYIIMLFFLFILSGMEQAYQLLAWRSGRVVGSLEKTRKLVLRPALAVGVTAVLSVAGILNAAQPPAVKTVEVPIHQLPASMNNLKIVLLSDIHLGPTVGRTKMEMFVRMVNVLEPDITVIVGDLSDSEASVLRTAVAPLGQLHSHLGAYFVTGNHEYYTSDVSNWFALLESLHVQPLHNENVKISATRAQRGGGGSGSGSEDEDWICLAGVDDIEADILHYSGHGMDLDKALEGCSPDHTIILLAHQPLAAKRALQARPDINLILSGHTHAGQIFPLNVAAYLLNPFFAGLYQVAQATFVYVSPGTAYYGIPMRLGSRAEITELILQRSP
UniProt Q96B96: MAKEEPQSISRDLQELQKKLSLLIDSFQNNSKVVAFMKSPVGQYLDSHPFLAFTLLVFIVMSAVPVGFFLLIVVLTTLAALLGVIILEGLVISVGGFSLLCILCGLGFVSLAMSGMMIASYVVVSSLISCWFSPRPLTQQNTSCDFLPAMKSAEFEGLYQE
UniProt Q5T3F8: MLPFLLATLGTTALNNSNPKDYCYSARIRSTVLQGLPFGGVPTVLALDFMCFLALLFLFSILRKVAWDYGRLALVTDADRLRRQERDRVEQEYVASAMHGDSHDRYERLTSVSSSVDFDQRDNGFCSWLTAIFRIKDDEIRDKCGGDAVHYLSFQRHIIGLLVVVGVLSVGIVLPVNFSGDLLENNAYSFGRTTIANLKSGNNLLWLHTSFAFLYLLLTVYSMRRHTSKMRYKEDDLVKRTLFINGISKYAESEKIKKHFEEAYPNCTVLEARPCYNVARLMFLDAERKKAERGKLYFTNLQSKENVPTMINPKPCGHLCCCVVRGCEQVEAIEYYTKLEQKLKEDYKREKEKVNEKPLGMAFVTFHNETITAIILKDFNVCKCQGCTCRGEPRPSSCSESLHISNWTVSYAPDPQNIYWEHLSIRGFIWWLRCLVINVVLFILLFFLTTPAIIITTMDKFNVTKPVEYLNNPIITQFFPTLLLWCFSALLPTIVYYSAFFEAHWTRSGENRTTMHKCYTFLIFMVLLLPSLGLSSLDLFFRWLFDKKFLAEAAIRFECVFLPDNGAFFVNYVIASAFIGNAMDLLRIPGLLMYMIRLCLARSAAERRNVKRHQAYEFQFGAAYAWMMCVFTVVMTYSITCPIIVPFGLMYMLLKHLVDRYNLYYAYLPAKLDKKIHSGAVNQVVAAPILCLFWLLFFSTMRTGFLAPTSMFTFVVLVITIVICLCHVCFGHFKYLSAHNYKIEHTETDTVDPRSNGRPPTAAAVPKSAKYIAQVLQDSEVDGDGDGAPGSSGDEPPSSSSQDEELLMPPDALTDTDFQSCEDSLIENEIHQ
UniProt Q9BTX3: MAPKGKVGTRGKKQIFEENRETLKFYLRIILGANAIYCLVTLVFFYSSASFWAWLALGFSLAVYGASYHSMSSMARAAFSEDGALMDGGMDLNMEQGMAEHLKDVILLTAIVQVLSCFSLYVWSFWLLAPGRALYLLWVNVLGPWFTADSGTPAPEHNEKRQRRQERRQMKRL
UniProt Q13829: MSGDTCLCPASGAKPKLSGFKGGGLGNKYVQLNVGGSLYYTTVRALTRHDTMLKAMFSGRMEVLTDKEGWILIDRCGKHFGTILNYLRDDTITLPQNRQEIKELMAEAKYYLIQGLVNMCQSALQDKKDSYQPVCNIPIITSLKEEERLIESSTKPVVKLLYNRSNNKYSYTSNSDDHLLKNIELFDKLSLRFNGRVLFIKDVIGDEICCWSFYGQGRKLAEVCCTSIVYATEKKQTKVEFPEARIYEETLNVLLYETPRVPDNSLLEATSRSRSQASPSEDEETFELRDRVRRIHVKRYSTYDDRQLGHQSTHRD
UniProt Q9BX74: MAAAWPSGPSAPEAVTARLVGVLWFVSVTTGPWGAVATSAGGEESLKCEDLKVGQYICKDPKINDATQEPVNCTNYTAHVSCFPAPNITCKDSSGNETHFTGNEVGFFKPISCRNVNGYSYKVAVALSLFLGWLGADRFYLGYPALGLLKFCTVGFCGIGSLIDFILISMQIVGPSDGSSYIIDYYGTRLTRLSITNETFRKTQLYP
UniProt Q8IY95: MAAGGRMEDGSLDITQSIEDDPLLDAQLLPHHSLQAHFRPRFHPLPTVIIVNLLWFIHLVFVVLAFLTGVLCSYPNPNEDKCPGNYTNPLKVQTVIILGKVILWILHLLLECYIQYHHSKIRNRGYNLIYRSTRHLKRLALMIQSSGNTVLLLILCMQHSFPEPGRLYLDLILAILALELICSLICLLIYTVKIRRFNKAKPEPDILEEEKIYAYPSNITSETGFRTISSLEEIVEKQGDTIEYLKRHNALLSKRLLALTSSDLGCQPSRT
UniProt Q86XT9, whole entry, looked up: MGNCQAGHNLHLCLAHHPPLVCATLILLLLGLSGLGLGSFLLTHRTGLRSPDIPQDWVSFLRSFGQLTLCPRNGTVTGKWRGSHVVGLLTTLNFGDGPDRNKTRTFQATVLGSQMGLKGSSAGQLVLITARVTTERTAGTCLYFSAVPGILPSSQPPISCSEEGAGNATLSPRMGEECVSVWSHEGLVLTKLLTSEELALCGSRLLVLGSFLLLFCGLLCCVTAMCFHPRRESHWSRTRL
UniProt Q6ZXV5: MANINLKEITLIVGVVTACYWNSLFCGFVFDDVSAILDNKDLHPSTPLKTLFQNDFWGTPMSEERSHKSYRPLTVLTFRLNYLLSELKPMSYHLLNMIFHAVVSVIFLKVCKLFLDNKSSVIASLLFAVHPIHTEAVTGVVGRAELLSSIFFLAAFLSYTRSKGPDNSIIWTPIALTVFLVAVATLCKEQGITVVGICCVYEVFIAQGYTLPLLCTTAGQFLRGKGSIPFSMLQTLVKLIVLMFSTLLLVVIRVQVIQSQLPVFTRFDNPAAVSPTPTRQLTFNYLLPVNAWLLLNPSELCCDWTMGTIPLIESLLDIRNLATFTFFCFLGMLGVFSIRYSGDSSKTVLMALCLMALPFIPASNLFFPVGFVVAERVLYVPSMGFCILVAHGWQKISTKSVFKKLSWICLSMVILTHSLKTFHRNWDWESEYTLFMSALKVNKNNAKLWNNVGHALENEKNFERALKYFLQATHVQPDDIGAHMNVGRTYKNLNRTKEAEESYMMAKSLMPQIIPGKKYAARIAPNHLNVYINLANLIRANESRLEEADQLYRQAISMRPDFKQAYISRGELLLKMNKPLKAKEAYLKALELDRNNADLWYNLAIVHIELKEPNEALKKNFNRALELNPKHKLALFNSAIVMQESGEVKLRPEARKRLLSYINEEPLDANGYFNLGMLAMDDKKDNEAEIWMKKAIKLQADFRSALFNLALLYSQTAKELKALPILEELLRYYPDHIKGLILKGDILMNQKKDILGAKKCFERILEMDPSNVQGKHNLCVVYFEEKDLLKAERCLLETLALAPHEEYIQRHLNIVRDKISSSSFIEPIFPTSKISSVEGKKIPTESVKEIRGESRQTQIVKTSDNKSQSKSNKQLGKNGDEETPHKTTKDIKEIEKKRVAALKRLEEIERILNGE
UniProt Q5BJH2: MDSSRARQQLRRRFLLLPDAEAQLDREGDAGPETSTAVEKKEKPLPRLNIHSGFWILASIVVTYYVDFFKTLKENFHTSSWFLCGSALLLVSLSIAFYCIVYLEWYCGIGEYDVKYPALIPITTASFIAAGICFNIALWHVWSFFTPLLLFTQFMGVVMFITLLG
UniProt Q96HV5: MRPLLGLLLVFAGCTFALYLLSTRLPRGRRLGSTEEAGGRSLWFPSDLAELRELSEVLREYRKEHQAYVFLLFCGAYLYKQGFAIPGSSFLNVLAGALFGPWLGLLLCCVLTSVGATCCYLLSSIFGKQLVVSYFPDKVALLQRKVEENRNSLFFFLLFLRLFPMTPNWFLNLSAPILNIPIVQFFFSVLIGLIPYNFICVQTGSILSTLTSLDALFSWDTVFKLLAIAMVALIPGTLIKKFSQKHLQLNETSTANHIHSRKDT

sotrastaurin = compound: CN1CCN(c2nc(C3=C(c4c[nH]c5ccccc45)C(=O)NC3=O)c3ccccc3n2)CC1 [sotrastaurin]
Outline: as §1

alvocidib = compound: CN1CC[C@H](c2c(O)cc(O)c3c(=O)cc(-c4ccccc4Cl)oc23)[C@H](O)C1 [alvocidib]
Outline: as §1

Tubastatin A = compound: CN1CCc2c(c3ccccc3n2Cc2ccc(C(=O)NO)cc2)C1 [Tubastatin A]
Outline: as §1

[1] = compound: CNC(=O)C1=CC=CC=C1NC2=NC(=NC=C2Cl)NC3=C(C=C(C=C3)N4CCOCC4)OC
Outline: as §1

defactinib = compound: CNC(=O)c1ccc(Nc2ncc(C(F)(F)F)c(NCc3nccnc3N(C)S(C)(=O)=O)n2)cc1 [defactinib]
Outline: as §1

rucaparib = compound: CNCc1ccc(-c2[nH]c3cc(F)cc4c3c2CCNC4=O)cc1 [rucaparib]
Outline: as §1

[2] = compound: CNc1nc(-c2ccc3c(N)n[nH]c3c2)cc(N2C[C@@H](C(=O)NC3CCCCC3)CC[C@H]2C)n1
Outline: as §1

encorafenib = compound: COC(=O)N[C@@H](C)CNc1nccc(-c2cn(C(C)C)nc2-c2cc(Cl)cc(NS(C)(=O)=O)c2F)n1 [encorafenib]
Outline: as §1

[3] = compound: COC(=O)[C@H](CCSC)NC(=O)C1=C(C=C(C=C1)NC[C@H](CS)N)C2=CC=CC=C2
Outline: as §1

filanesib = compound: CON(C)C(=O)N1N=C(c2cc(F)ccc2F)S[C@@]1(CCCN)c1ccccc1 [filanesib]
Outline: as §1

zotarolimus = compound: CO[C@H]1C[C@@H]2CC[C@@H](C)[C@@](O)(O2)C(=O)C(=O)N2CCCC[C@H]2C(=O)O[C@H]([C@H](C)C[C@@H]2CC[C@H](n3cnnn3)[C@H](OC)C2)CC(=O)[C@H](C)/C=C(\C)[C@@H](O)[C@@H](OC)C(=O)[C@H](C)C[C@H](C)/C=C/C=C/C=C/1C [zotarolimus]
Outline: as §1

idasanutlin = compound: COc1cc(C(=O)O)ccc1NC(=O)[C@@H]1N[C@@H](CC(C)(C)C)[C@](C#N)(c2ccc(Cl)cc2F)[C@H]1c1cccc(Cl)c1F [idasanutlin]
Outline: as §1

alisertib = compound: COc1cc(Nc2ncc3c(n2)-c2ccc(Cl)cc2C(c2c(F)cccc2OC)=NC3)ccc1C(=O)O [alisertib]
Outline: as §1

[4] = compound: COc1cc2nc(-c3cc(F)ccc3O)nc(N[C@@H]3CNC[C@H]3C(C)(C)O)c2cc1OC
Outline: as §1

gefitinib = compound: COc1cc2ncnc(Nc3ccc(F)c(Cl)c3)c2cc1OCCCN1CCOCC1 [gefitinib]
Outline: as §1

[5] = compound: COc1cccc2cc(-c3nc([C@H]4CC[C@H](C(=O)O)CC4)n4ncnc(N)c34)[nH]c12
Outline: as §1

lapatinib = compound: CS(=O)(=O)CCNCc1ccc(-c2ccc3ncnc(Nc4ccc(OCc5cccc(F)c5)c(Cl)c4)c3c2)o1 [lapatinib]
Outline: as §1

pictilisib = compound: CS(=O)(=O)N1CCN(Cc2cc3nc(-c4cccc5[nH]ncc45)nc(N4CCOCC4)c3s2)CC1 [pictilisib]
Outline: as §1

[6] = compound: COC1=CC=C(C=C1)CN2C=CC3=C2C=C(C=C3)C(=O)NO
Outline: as §1

Measured: log2 fold change

TMUB1 (UniProt Q9BVT8)
inactive: saracatinib -0.138 | sotrastaurin 0.005 | alvocidib -0.01 | Tubastatin A 0.04 | [1] -0.063 | defactinib -0.02 | rucaparib 0.022 | [2] -0.087 | encorafenib -0.105 | [3] 0.108 | filanesib 0.11 | zotarolimus 0.01 | idasanutlin 0.06 | alisertib -0.147 | [4] 0.052 | gefitinib 0.121 | [5] -0.02 | lapatinib -0.133 | pictilisib 0.015

TMEM242 (UniProt Q9NWH2)
inactive: saracatinib 0.1 | sotrastaurin 0.039 | alvocidib 0.04 | Tubastatin A 0.065 | [1] 0.038 | defactinib -0.056 | rucaparib -0.016 | [2] 0.014 | encorafenib 0.023 | [3] 0.079 | filanesib 0.076 | zotarolimus -0.069 | idasanutlin 0.102 | alisertib -0.043 | [4] -0.034 | gefitinib -0.089 | [5] 0.121 | lapatinib 0.041 | pictilisib -0.032

TMC1 (UniProt Q8TDI8)
inactive: saracatinib 0.153 | sotrastaurin 0.04 | alvocidib 0.122 | Tubastatin A -0.013 | [1] 0.006 | defactinib 0.097 | rucaparib -0.394 | [2] 0.033 | encorafenib 0.189 | [3] -0.05 | [6] -0.348 | filanesib -0.146 | zotarolimus -0.042 | idasanutlin -0.345 | alisertib 0.143 | [4] -0.092 | gefitinib -0.046 | [5] 0.039 | lapatinib -0.011 | pictilisib 0.047

TMCC1 (UniProt O94876)
inactive: saracatinib 0.193 | sotrastaurin -0.137 | alvocidib 0.021 | [2] -0.214 | filanesib -0.068 | zotarolimus 0.059 | idasanutlin 0.072 | alisertib -0.192 | [5] 0.031 | pictilisib 0.083

Quoted at random: two records from the list, in no set order.
TMCC1 (UniProt O94876)
inactive: saracatinib 0.193 | sotrastaurin -0.137 | alvocidib 0.021 | [2] -0.214 | filanesib -0.068 | zotarolimus 0.059 | idasanutlin 0.072 | alisertib -0.192 | [5] 0.031 | pictilisib 0.083

TMEM242 (UniProt Q9NWH2)
inactive: saracatinib 0.1 | sotrastaurin 0.039 | alvocidib 0.04 | Tubastatin A 0.065 | [1] 0.038 | defactinib -0.056 | rucaparib -0.016 | [2] 0.014 | encorafenib 0.023 | [3] 0.079 | filanesib 0.076 | zotarolimus -0.069 | idasanutlin 0.102 | alisertib -0.043 | [4] -0.034 | gefitinib -0.089 | [5] 0.121 | lapatinib 0.041 | pictilisib -0.032

Further results.

TMEM87B (UniProt Q96K49)
inactive: saracatinib -0.072 | sotrastaurin 0.013 | Tubastatin A -0.099 | [1] -0.019 | defactinib 0.044 | rucaparib -0.016 | [2] -0.123 | encorafenib 0.03 | [3] 0.149 | [6] -0.064 | filanesib -0.046 | zotarolimus -0.108 | idasanutlin -0.05 | alisertib -0.133 | [4] -0.002 | gefitinib 0.063 | [5] 0.036 | lapatinib 0.026 | pictilisib 0.055

TMBIM6 isoform 2 (UniProt P55061)
active: idasanutlin -0.51 | [4] -0.535
inactive: saracatinib 0.08 | sotrastaurin -0.029 | Tubastatin A 0.062 | [1] -0.004 | defactinib -0.007 | rucaparib -0.065 | [2] -0.006 | encorafenib -0.005 | [3] 0.039 | [6] -0.007 | filanesib -0.233 | zotarolimus -0.099 | alisertib -0.27 | gefitinib -0.087 | [5] -0.165 | lapatinib -0.196

TMPPE (UniProt Q6ZT21)
inactive: saracatinib 0.093 | sotrastaurin 0.04 | alvocidib -0.004 | Tubastatin A 0.009 | [1] -0.005 | defactinib -0.052 | rucaparib 0.017 | [2] -0.031 | encorafenib 0.033 | [3] -0.096 | [6] 0.057 | filanesib -0.038 | zotarolimus 0.01 | idasanutlin -0.019 | alisertib -0.055 | [4] 0.03 | gefitinib 0.009 | [5] 0.01 | lapatinib -0.018 | pictilisib 0.129

TMEM159 isoform 2 (UniProt Q96B96)
inactive: saracatinib 0.323 | sotrastaurin -0.037 | Tubastatin A -0.021 | [1] -0.155 | [2] -0.001 | filanesib -0.049 | alisertib -0.034 | gefitinib -0.111 | [5] -0.214 | pictilisib 0.167

TMEM63B (UniProt Q5T3F8)
inactive: saracatinib -0.084 | sotrastaurin -0.055 | Tubastatin A -0.015 | [1] 0.019 | defactinib 0.015 | rucaparib -0.004 | [2] -0.068 | encorafenib 0.023 | [3] 0 | [6] -0.125 | filanesib -0.089 | zotarolimus -0.018 | idasanutlin 0.011 | alisertib -0.037 | [4] -0.028 | gefitinib -0.03 | [5] -0.028 | lapatinib 0.032 | pictilisib 0.003

TMEM208 (UniProt Q9BTX3)
inactive: saracatinib -0.047 | sotrastaurin -0.02 | Tubastatin A 0.003 | [1] -0.142 | defactinib -0.023 | rucaparib -0.045 | [2] -0.099 | encorafenib 0.145 | [3] -0.164 | [6] -0.131 | filanesib -0.254 | zotarolimus -0.111 | idasanutlin -0.137 | alisertib 0.109 | [4] 0.019 | gefitinib -0.055 | [5] -0.146 | lapatinib -0.151 | pictilisib -0.17

TNFAIP1 (UniProt Q13829)
inactive: saracatinib -0.139 | alvocidib 0.009 | Tubastatin A -0.011 | [1] -0.061 | defactinib 0.139 | rucaparib 0.015 | [2] -0.272 | encorafenib -0.014 | [3] -0.038 | [6] -0.132 | zotarolimus 0.116 | idasanutlin -0.021 | alisertib 0.001 | [4] -0.021 | gefitinib 0.075 | [5] -0.067 | lapatinib 0.017

TM2D1 (UniProt Q9BX74)
inactive: saracatinib -0.031 | sotrastaurin -0.279 | [2] -0.064 | filanesib -0.106

TMEM192 (UniProt Q8IY95)
inactive: saracatinib 0.092 | sotrastaurin -0.028 | Tubastatin A 0.035 | [1] 0.015 | defactinib -0.016 | rucaparib -0.01 | [2] -0.033 | encorafenib -0.02 | [3] 0.036 | [6] -0.036 | filanesib -0.162 | zotarolimus -0.047 | idasanutlin 0.037 | alisertib -0.048 | [4] -0.009 | gefitinib -0.047 | [5] 0.099 | lapatinib -0.02 | pictilisib 0.038

TMEM268 isoform 3 (UniProt Q5VZI3)
inactive: saracatinib 0.033 | sotrastaurin -0.103 | Tubastatin A 0.131 | [1] -0.017 | rucaparib -0.021 | [2] 0.046 | encorafenib -0.19 | filanesib -0.064 | zotarolimus 0.104 | idasanutlin -0.135 | alisertib 0.014 | [4] -0.25 | gefitinib -0.079 | [5] 0.001 | lapatinib 0.09 | pictilisib -0.088

TMEM219 (UniProt Q86XT9)
inactive: saracatinib 0.261 | sotrastaurin 0.03 | Tubastatin A -0.059 | [1] -0.016 | defactinib -0.185 | [2] 0.176 | [3] -0.093 | filanesib -0.065 | zotarolimus -0.181 | idasanutlin -0.017 | [4] -0.011 | gefitinib -0.029 | lapatinib 0.058 | pictilisib -0.277

TMTC3 (UniProt Q6ZXV5)
inactive: saracatinib -0.03 | sotrastaurin 0.028 | Tubastatin A 0.009 | [1] 0.012 | defactinib 0.009 | rucaparib 0.022 | [2] 0.006 | encorafenib 0.028 | [3] -0.019 | [6] -0.092 | filanesib 0.01 | zotarolimus 0.006 | idasanutlin -0.03 | alisertib 0.105 | [4] -0.085 | gefitinib -0.007 | [5] -0.041 | lapatinib 0.053 | pictilisib 0.032

TMEM128 (UniProt Q5BJH2)
inactive: saracatinib 0.083 | sotrastaurin 0.01 | Tubastatin A -0.011 | [1] -0.023 | defactinib -0.045 | rucaparib 0.019 | [2] -0.062 | encorafenib -0.006 | [3] -0.006 | [6] -0.065 | filanesib 0.152 | zotarolimus -0.181 | idasanutlin 0.035 | [4] 0.025 | gefitinib 0.076 | lapatinib -0.068

TMEM41A (UniProt Q96HV5)
inactive: saracatinib 0.03 | sotrastaurin -0.057 | Tubastatin A -0.068 | [1] 0.008 | defactinib 0.003 | rucaparib -0.009 | [2] -0.011 | encorafenib 0.025 | [3] -0.012 | [6] -0.123 | filanesib -0.158 | idasanutlin 0.024 | alisertib -0.096 | [4] 0.088 | gefitinib 0.034 | [5] 0.092 | lapatinib -0.106 | pictilisib -0.047

TMEM167B (UniProt Q9NRX6)
inactive: saracatinib 0.046 | sotrastaurin 0.018 | Tubastatin A 0.009 | [1] -0.028 | defactinib -0.069 | rucaparib -0.055 | [2] -0.061 | encorafenib 0.021 | [3] 0.021 | [6] -0.084 | filanesib -0.08 | alisertib 0.082 | [4] -0.023 | gefitinib 0.117 | [5] 0.087 | lapatinib -0.011 | pictilisib 0.044

From the supplement of paper PMC10849652
